ChEMBL document CHEMBL5674883, “The Heterochromatin Landscape in Migrating Cells and the Importance of H3K27me3 for Associated Transcriptome Alterations” (Cells, 2018)
Further values from the same series stand in other lists.

By UniProt entry, the sequences of proteins in these tests, tags left out.
UniProt Q61188, whole entry: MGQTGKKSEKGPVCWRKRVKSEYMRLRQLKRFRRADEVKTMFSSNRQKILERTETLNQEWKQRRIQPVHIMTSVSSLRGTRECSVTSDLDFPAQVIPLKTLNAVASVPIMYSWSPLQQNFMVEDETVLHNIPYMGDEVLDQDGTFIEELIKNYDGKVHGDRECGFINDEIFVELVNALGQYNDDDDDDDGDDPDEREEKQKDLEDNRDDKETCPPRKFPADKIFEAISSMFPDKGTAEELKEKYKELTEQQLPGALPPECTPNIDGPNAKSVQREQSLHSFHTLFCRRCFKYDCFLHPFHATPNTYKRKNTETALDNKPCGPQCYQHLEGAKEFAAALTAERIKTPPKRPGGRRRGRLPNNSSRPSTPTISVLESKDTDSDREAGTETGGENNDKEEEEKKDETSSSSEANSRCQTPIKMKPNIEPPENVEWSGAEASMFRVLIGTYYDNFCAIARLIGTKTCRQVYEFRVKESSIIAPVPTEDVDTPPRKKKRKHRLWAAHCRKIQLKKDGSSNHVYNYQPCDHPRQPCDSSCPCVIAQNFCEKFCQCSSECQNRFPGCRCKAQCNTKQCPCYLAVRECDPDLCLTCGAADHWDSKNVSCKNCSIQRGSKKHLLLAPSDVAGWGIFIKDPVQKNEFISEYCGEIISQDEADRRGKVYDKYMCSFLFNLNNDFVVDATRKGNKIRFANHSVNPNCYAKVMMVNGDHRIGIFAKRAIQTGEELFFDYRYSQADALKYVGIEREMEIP

Tests used:
Assay type in all cases: cell-based
[1] = target: T1, RNA polymerase II (Mus musculus) (UniProt P08775+Q8CFI7+P97760+A0A3Q4L2S8+Q80UW8+P61219+P62488+Q923G2+P60898+O08740+Q63871+P62876); experiment: Inhibition of RNA polymerase II in mouse B16-F1 migrating cells assessed as fold change in Gng11-RNA stability at 0.1 mM measured by ChIP-seq analysis relative to control cells
[2] = target: T1, RNA polymerase II (Mus musculus); experiment: Inhibition of RNA polymerase II in mouse B16-F1 migrating cells assessed as fold change in Tmem160-RNA stability at 0.1 mM measured by ChIP-seq analysis relative to control cells
[3] = target: T1, RNA polymerase II (Mus musculus); experiment: Inhibition of RNA polymerase II in mouse B16-F1 migrating cells assessed as fold change in Hes6-RNA stability at 0.1 mM measured by ChIP-seq analysis relative to control cells
[4] = target: T1, RNA polymerase II (Mus musculus); experiment: Inhibition of RNA polymerase II in mouse B16-F1 migrating cells assessed as fold change in Edf1-RNA stability at 0.1 mM measured by ChIP-seq analysis relative to control cells
[5] = target: T1, RNA polymerase II (Mus musculus); experiment: Inhibition of RNA polymerase II in mouse B16-F1 migrating cells assessed as fold change in Atp9a-RNA stability at 0.1 mM measured by ChIP-seq analysis relative to control cells
[6] = target: T1, RNA polymerase II (Mus musculus); experiment: Inhibition of RNA polymerase II in mouse B16-F1 migrating cells assessed as fold change in Cotl1-RNA stability at 0.1 mM measured by ChIP-seq analysis relative to control cells
[7] = target: T1, RNA polymerase II (Mus musculus); experiment: Inhibition of RNA polymerase II in mouse B16-F1 migrating cells assessed as fold change in Btbd2-RNA stability at 0.1 mM measured by ChIP-seq analysis relative to control cells
[8] = target: T1, RNA polymerase II (Mus musculus); experiment: Inhibition of RNA polymerase II in mouse B16-F1 migrating cells assessed as fold change in Atp13a2-RNA stability at 0.1 mM measured by ChIP-seq analysis relative to control cells
[9] = target: T1, RNA polymerase II (Mus musculus); experiment: Inhibition of RNA polymerase II in mouse B16-F1 migrating cells assessed as fold change in Lmf1-RNA stability at 0.1 mM measured by ChIP-seq analysis relative to control cells
[10] = target: T1, RNA polymerase II (Mus musculus); experiment: Inhibition of RNA polymerase II in mouse B16-F1 migrating cells assessed as fold change in Pcnp-RNA stability at 0.1 mM measured by ChIP-seq analysis relative to control cells
[11] = target: T1, RNA polymerase II (Mus musculus); experiment: Inhibition of RNA polymerase II in mouse B16-F1 migrating cells assessed as fold change in Ascc3-RNA stability at 0.1 mM measured by ChIP-seq analysis relative to control cells
[12] = target: T1, RNA polymerase II (Mus musculus); experiment: Inhibition of RNA polymerase II in mouse B16-F1 migrating cells assessed as fold change in Zfp280d-RNA stability at 0.1 mM measured by ChIP-seq analysis relative to control cells
[13] = target: T1, RNA polymerase II (Mus musculus); experiment: Inhibition of RNA polymerase II in mouse B16-F1 migrating cells assessed as fold change in Bmi1-RNA stability at 0.1 mM measured by ChIP-seq analysis relative to control cells
[14] = target: T1, RNA polymerase II (Mus musculus); experiment: Inhibition of RNA polymerase II in mouse B16-F1 migrating cells assessed as fold change in Ptpn2-RNA stability at 0.1 mM measured by ChIP-seq analysis relative to control cells
[15] = target: T1, RNA polymerase II (Mus musculus); experiment: Inhibition of RNA polymerase II in mouse B16-F1 migrating cells assessed as fold change in Senp6-RNA stability at 0.1 mM measured by ChIP-seq analysis relative to control cells
[16] = target: T1, RNA polymerase II (Mus musculus); experiment: Inhibition of RNA polymerase II in mouse B16-F1 migrating cells assessed as fold change in Ly6g5b-RNA stability at 0.1 mM measured by ChIP-seq analysis relative to control cells
[17] = target: T1, RNA polymerase II (Mus musculus); experiment: Inhibition of RNA polymerase II in mouse B16-F1 migrating cells assessed as fold change in B3galt1-RNA stability at 0.1 mM measured by ChIP-seq analysis relative to control cells
[18] = target: T1, RNA polymerase II (Mus musculus); experiment: Inhibition of RNA polymerase II in mouse B16-F1 migrating cells assessed as fold change in Gm44250-RNA stability at 0.1 mM measured by ChIP-seq analysis relative to control cells
[19] = target: T1, RNA polymerase II (Mus musculus); experiment: Inhibition of RNA polymerase II in mouse B16-F1 migrating cells assessed as fold change in Esf1-RNA stability at 0.1 mM measured by ChIP-seq analysis relative to control cells
[20] = target: Histone-lysine N-methyltransferase EZH2 (Mus musculus) (UniProt Q61188); experiment: Inhibition of EZH2 in mouse B16-F1 migrating cells assessed as fold change in H3K27me3-dependent regulated Sgk1-mRNA expression at 3 uM measured by ChIP-seq analysis relative to control cells
[21] = target: Histone-lysine N-methyltransferase EZH2 (Mus musculus) (UniProt Q61188); experiment: Inhibition of EZH2 in mouse B16-F1 migrating cells assessed as fold change in H3K27me3-independent regulated Gbe1-mRNA expression at 3 uM measured by ChIP-seq analysis relative to control cells
[22] = target: Histone-lysine N-methyltransferase EZH2 (Mus musculus) (UniProt Q61188); experiment: Inhibition of EZH2 in mouse B16-F1 migrating cells assessed as fold change in H3K27me3-independent regulated Hk2-mRNA expression at 3 uM measured by ChIP-seq analysis relative to control cells
[23] = target: Histone-lysine N-methyltransferase EZH2 (Mus musculus) (UniProt Q61188); experiment: Inhibition of EZH2 in mouse B16-F1 migrating cells assessed as fold change in H3K27me3-buffered regulated Gm44806-mRNA expression at 3 uM measured by ChIP-seq analysis relative to control cells
[24] = target: Histone-lysine N-methyltransferase EZH2 (Mus musculus) (UniProt Q61188); experiment: Inhibition of EZH2 in mouse B16-F1 migrating cells assessed as fold change in H3K27me3-buffered regulated Gm10076-mRNA expression at 3 uM measured by ChIP-seq analysis relative to control cells
[25] = target: Histone-lysine N-methyltransferase EZH2 (Mus musculus) (UniProt Q61188); experiment: Inhibition of EZH2 in mouse B16-F1 migrating cells assessed as fold change in H3K27me3-buffered regulated Tbc1d16-mRNA expression at 3 uM measured by ChIP-seq analysis relative to control cells
[26] = target: Histone-lysine N-methyltransferase EZH2 (Mus musculus) (UniProt Q61188); experiment: Inhibition of EZH2 in mouse B16-F1 migrating cells assessed as fold change in H3K27me3-buffered regulated Hyal1-mRNA expression at 3 uM measured by ChIP-seq analysis relative to control cells
[27] = target: Histone-lysine N-methyltransferase EZH2 (Mus musculus) (UniProt Q61188); experiment: Inhibition of EZH2 in mouse B16-F1 migrating cells assessed as fold change in H3K27me3-buffered regulated Tns3-mRNA expression at 3 uM measured by ChIP-seq analysis relative to control cells
[28] = target: Histone-lysine N-methyltransferase EZH2 (Mus musculus) (UniProt Q61188); experiment: Inhibition of EZH2 in mouse B16-F1 migrating cells assessed as fold change in H3K27me3-buffered regulated Mplkip-mRNA expression at 3 uM measured by ChIP-seq analysis relative to control cells
[29] = target: Histone-lysine N-methyltransferase EZH2 (Mus musculus) (UniProt Q61188); experiment: Inhibition of EZH2 in mouse B16-F1 migrating cells assessed as fold change in H3K27me3-buffered regulated Iqcc-mRNA expression at 3 uM measured by ChIP-seq analysis relative to control cells
[30] = target: Histone-lysine N-methyltransferase EZH2 (Mus musculus) (UniProt Q61188); experiment: Inhibition of EZH2 in mouse B16-F1 migrating cells assessed as fold change in H3K27me3-buffered regulated Six4-mRNA expression at 3 uM measured by ChIP-seq analysis relative to control cells

OC[C@H]1O[C@@H](n2cnc3cc(Cl)c(Cl)cc32)[C@H](O)[C@@H]1O
log2FC [1]: 0.66 | log2FC [2]: 0.61 | log2FC [3]: 0.56 | log2FC [4]: 0.55 | log2FC [5]: 0.52 | log2FC [6]: 0.5 | log2FC [7]: 0.46 | log2FC [8]: 0.4 | log2FC [9]: 0.39 | log2FC [10]: -0.48 | log2FC [11]: -0.54 | log2FC [12]: -0.55 | log2FC [13]: -0.6 | log2FC [14]: -0.63 | log2FC [15]: -0.65 | log2FC [16]: -0.87 | log2FC [17]: -0.9 | log2FC [18]: -0.93 | log2FC [19]: -1.07

CCCc1cc(C)[nH]c(=O)c1CNC(=O)c1cc(-c2ccnc(N3CCN(C)CC3)c2)cc2c1cnn2C(C)C
log2FC [20]: 0.33 | log2FC [21]: 0.6 | log2FC [22]: -1.01 | log2FC [23]: 1.17 | log2FC [24]: 1.02 | log2FC [25]: 0.6 | log2FC [26]: 0.51 | log2FC [27]: -0.4 | log2FC [28]: -0.5 | log2FC [29]: -0.65 | log2FC [30]: -0.74
